PubChem BioAssay AID504834 (National Center for Advancing Translational Sciences (NCATS), 2011)
In all, about 320,000 compounds went through this assay and about 22,000 (6.9%) were called active. The inconclusive results got no clear call from the source; some entries with a clear call stand among them for comparison. Calls come from the whole dose curve; as a rule, active = well fitted inhibition curve with a large enough effect; inconclusive = small, poorly fitted or top-dose-only effect, or another doubt; inactive = no such curve, though single readings can be large or run the other way. Where the call is inconclusive, the potency comes from a doubtful curve fit.

Assay: Primary qHTS for delayed death inhibitors of the malarial parasite plastid, 96 hour incubation
Details: P. falciparum luciferase reporter growth; series mostly up to 28.7 µM; activity change, negative = inhibition: at the top concentration
Procedure, shortened: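 P. falciparum expressing integrated firefly luciferase grown in erythrocytes (2% hematocrit, 0.05% parasitemia final) with compounds for 96 hours at 37 C, 5% CO2. Growth inhibition read as loss of luminescence after adding luciferase detection reagent.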
% is set by controls: 0 for no effect and ±100 for the full control effect; potency is the fitted concentration of half-maximal effect.

| Structure (SMILES) | Potency | activity change, negative = inhibition |
| --- | --- | --- |
| Cc1cc(NS(=O)(=O)c2ccc(NC(=O)c3c(F)c(F)c(F)c(F)c3F)cc2)nc(C)n1 | inconclusive: 8.28 µM [inhibitor, partial curve, poor fit] | – |
| C=CCn1c(SCC(=O)Nc2c(C)n(C)n(-c3ccccc3)c2=O)nc2scc(-c3ccccc3)c2c1=O | inconclusive: 13.1 µM [inhibitor, partial curve, poor fit] | – |
| CN(Cc1c(F)cccc1Cl)C(=O)c1ccc2ccccc2n1 | – | inactive: 19.4% |
| COc1ccccc1-c1sc2cc3c(cc2c1C#CCO)OCO3 | inconclusive: 0.0026 µM [inhibitor, full curve, poor fit] | – |
| CC(=O)Oc1ccc2c(=O)c(N3C(=O)c4ccccc4C3=O)c(C)oc2c1C | inconclusive: 0.329 µM [inhibitor, partial curve, poor fit] | – |
| CCN(CC)S(=O)(=O)c1cccc(S(=O)(=O)c2cccc(S(=O)(=O)N(CC)CC)c2)c1 | inconclusive: 20.8 µM [inhibitor, single point] | – |
| OC1CN=C2C=CC=CN2C1 (centres undefined) | inconclusive: 2.33 µM [inhibitor, full curve, poor fit] | – |
| COCCn1c(SCC(=O)Nc2ccc(OC)cc2OC)nc2ccccc2c1=O | inconclusive: 13.1 µM [inhibitor, single point] | – |
| CCn1c2ccccc2c2cc(CN3CCN(C(=O)c4ccco4)CC3)ccc21 | active: 8.28 µM | – |
| CC(C)CCN1CC(=O)N2[C@@H](Cc3c([nH]c4ccccc34)C2(C)C)C1=O | inconclusive: 5.22 µM [inhibitor, partial curve, poor fit] | – |
| NS(=O)(=O)c1ccc(CCNS(=O)(=O)c2ccc(Cl)cc2)cc1 | inconclusive: 7.38 µM [inhibitor, partial curve] | – |
| CCC(=O)c1ccc(OCC(=O)N2CCN(c3ccccn3)CC2)cc1 | inconclusive: 10.4 µM [inhibitor, single point] | – |
| CCC1CCCCN1S(=O)(=O)c1ccc([N+](=O)[O-])cc1 (centres undefined) | inconclusive: 9.28 µM [inhibitor, partial curve, poor fit] | – |
| CN(C)C(CNC(=O)CSc1nc2sc3c(c2c(=O)n1C)CCCC3)c1ccccc1 (centres undefined) | active: 11.7 µM | – |
| Cc1cccc(-c2nnc(SCC(=O)NC3CCCC3)o2)c1 | – | inactive: -0.976% |
| S=c1c2c(nc3nc[nH]n13)CCC2 | active: 1.65 µM | – |
| Oc1ccc(NCc2cccc(OCc3ccccc3)c2)cc1 | – | inactive: -25.9% [at 5.75 µM] |
| COc1ccc2cc(/C(C)=N/NC(=O)c3cc(-c4cccnc4)nc4ccccc34)ccc2c1 | inconclusive: 8.28 µM [inhibitor, partial curve, poor fit] | – |
| CCOC(=O)c1nnn2c1nc(SCC(C)=O)c1ccccc12 | inconclusive: 0.262 µM [inhibitor, full curve, poor fit] | – |
| C/C(=N/NS(=O)(=O)c1ccc(C(C)C)cc1)c1ccncc1 | – | inactive: -27.3% |
| COc1ccccc1C(=O)N/C(=C\c1ccc(Br)cc1)C(=O)NCC(=O)O | inconclusive: 11.7 µM [inhibitor, single point] | – |
| CCOC(=O)c1ccccc1NC(=O)CSc1nnc(COc2ccccc2C)n1C | inconclusive: 5.86 µM [inhibitor, partial curve, poor fit] | – |
| O=C(N/N=C/c1ccncc1)c1cc2ccccc2o1 | – | inactive: -18.5% |

| Structure (SMILES) | Potency | activity change, negative = inhibition |
| --- | --- | --- |
| Cc1ccc(/C=C(\NC(=O)c2ccccc2)C(=O)NC(Cc2ccccc2)C(=O)O)cc1 (centres undefined) | active: 0.522 µM | – |
| CSc1ncccc1C(=O)OCC(=O)c1ccccc1Br | – | inactive: -20.9% |
| O=C(NNc1ncccc1Cl)c1c(Cl)cccc1Cl | inconclusive: 0.522 µM [inhibitor, partial curve, poor fit] | – |
| C/C(=N\Nc1cc(C)nc(NCc2ccccc2)n1)c1cccc([N+](=O)[O-])c1 | inconclusive: 0.657 µM [inhibitor, full curve, poor fit] | – |
| N#Cc1c(NC(=O)c2cnn3cccnc23)sc2c1CCCC2 | – | inactive: 28.5% |
| COc1ccc(NS(=O)(=O)c2cccc(NC(=O)c3cnccn3)c2)cc1Br | – | inactive: -37% |
| CN(C)C(Cc1ccc(Cl)cc1)C(=O)c1ccccc1 (centres undefined) | inconclusive: 18.5 µM [inhibitor, single point] | – |
| COc1ccc(Cn2c(C)nc([N+](=O)[O-])c2SCC(=O)O)cc1[N+](=O)[O-] | – | inactive: -20.4% |
| O=C(Nc1nncs1)c1cccc(S(=O)(=O)N2CCc3ccccc32)c1 | – | inactive: 17.5% |
| CCCCOC(=O)Cn1c(=O)c2c(nc(Br)n2Cc2ccccc2)n(C)c1=O | inconclusive: 10.4 µM [inhibitor, single point] | – |
| Cc1ccc(NC(=O)[C@@H]2CCCN2S(=O)(=O)c2ccccc2C(F)(F)F)cc1S(=O)(=O)N1CCOCC1 | inconclusive: 14.7 µM [inhibitor, partial curve, poor fit] | – |
| N#C/C(N=Nc1ccccc1O)=N\Nc1ccccc1O | inconclusive: 18.5 µM [inhibitor, single point] | – |
| CC1(C)CC(N(CCc2ccccc2)Cc2ccccc2)CCO1 (centres undefined) | inconclusive: 16.5 µM [inhibitor, single point] | – |
| Cc1ccc(CS(=O)(=O)c2ncn[nH]2)cc1 | – | inactive: 21.7% |
| O=C(Nc1cccc(Cl)c1)Nc1ccccc1C(=O)NCc1ccco1 | inconclusive: 2.62 µM [inhibitor, single point] | – |
| Nn1c(SCC(=O)NC(=O)Nc2ccc3c(c2)OCCO3)nnc1C1CC1 | – | inactive: 105% |
| CCCCN1C(=S)NC[C@@H]1Cc1cccc2ccccc12 | inconclusive: 13.1 µM [inhibitor, single point] | – |
| C=CCNc1nc(N)c([N+](=O)[O-])c(NCc2ccccc2)n1 | inconclusive: 20.8 µM [inhibitor, partial curve, poor fit] | – |
| CN1/C(=C\C=N\NC(=O)c2ccc(O)cc2)C(C)(C)c2ccccc21 | inconclusive: 18.5 µM [inhibitor, single point] | – |
| CN1C(=O)C2ON(c3ccccc3)C(c3cccs3)C2C1=O (centres undefined) | active: 9.28 µM | – |
| C=C1CC[C@@H]2[C@](C)(CO)[C@H](O)CC[C@@]2(C)[C@@H]1/C=C/C1=CCOC1=O | – | inactive: 1.13% |
| Cc1ccc(CNC(=O)c2cc(COc3c(F)cccc3F)on2)s1 | – | inactive: -4.38% |
| COc1ccc(Cc2nc3ccc(C(=O)NC4CCOC4)cc3o2)cc1 (centres undefined) | inconclusive: 10.4 µM [inhibitor, single point] | – |

| Structure (SMILES) | Potency | activity change, negative = inhibition |
| --- | --- | --- |
| Cc1ccc(C(=O)Nc2cc(Cl)ccc2OC(=O)c2ccc(C)cc2)cc1 | active: 0.465 µM | – |
| Cc1nc2c(-c3ccc(F)cc3)cnn2c(N)c1-c1ccccc1 | – | inactive: -51.6% |
| OC1(CC#CCN2CCCCC2)c2ccccc2-c2ccccc21 | inconclusive: 2.62 µM [inhibitor, full curve, poor fit] | – |
| Cc1cccc(NC(=O)C(Cc2ccccc2)n2cccc2)c1 (centres undefined) | inconclusive: 18.5 µM [inhibitor, single point] | – |
| Cc1ccc(F)c(NC(=O)c2ccc(Cn3cc(Cl)cn3)cc2)c1 | – | inactive: -5.9% |
| O=C(O)P(=O)(O)O | inconclusive: 4.26 µM [inhibitor, single point] | – |
| O=C(c1ccc(Br)cc1)N1CCCC(c2nc(-c3cccs3)no2)C1 (centres undefined) | inconclusive: 10.4 µM [inhibitor, single point] | – |
| C=C(C)C1CC=C(CN2CC(C)OC(C)C2)CC1 (centres undefined) | inconclusive: 4.65 µM [inhibitor, full curve, poor fit] | – |
| COc1ccc(C(C)=O)cc1CSc1nc2ccccc2c(=O)n1-c1cccc(C)c1 | inconclusive: 6.57 µM [inhibitor, partial curve, poor fit] | – |
| CC1=C(CC(=O)c2ccc(Cl)cc2)C(=O)c2ccccc2C1=O | inconclusive: 0.294 µM [inhibitor, full curve] | – |
| COc1ccc(CNC(=O)CSc2nnnn2-c2ccc(O)cc2)cc1 | inconclusive: 1.04 µM [inhibitor, partial curve, poor fit] | – |
| Cc1cc(N=Cc2c(O)ccc3ccccc23)no1 | inconclusive: 18.5 µM [inhibitor, single point] | – |
| Cn1c(=O)c2c(nc(CN3CCN(C(=O)c4ccco4)CC3)n2Cc2ccccc2)n(C)c1=O | inconclusive: 8.28 µM [inhibitor, partial curve] | – |
| CSCCC(NS(=O)(=O)c1ccc2c(c1)oc(=O)n2C)C(=O)NC1CCN(Cc2ccccc2)CC1 (centres undefined) | active: 1.85 µM | – |
| COc1ccc(CCNC(=O)c2cc3ccccc3oc2=O)cc1 | – | inactive: 0% |
| COCCOC(=O)C1=C(N)Oc2c(oc(CO)cc2=O)C1c1c(F)cccc1Cl (centres undefined) | active: 4.65 µM | – |
| CCOc1ccc(S(=O)(=O)N2CCN(S(=O)(=O)c3ccc(OCC)cc3)C(C)C2)cc1 (centres undefined) | inconclusive: 8.28 µM [inhibitor, partial curve] | – |
| Cc1ccc([C@@H]2CC=C(C(=O)O)[C@H](c3ccccc3F)N2S(=O)(=O)c2ccc(C)cc2)cc1 | inconclusive: 18.5 µM [inhibitor, single point] | – |
| COc1ccccc1NS(=O)(=O)c1ccc(C)c(C(=O)NCc2cccnc2)c1 | inconclusive: 18.5 µM [inhibitor, single point] | – |
| Cn1c(SCC(=O)N2c3ccccc3CCc3ccccc32)nnc1-c1cc2ccccc2cc1O | – | inactive: -91.7% |
| Clc1ccc(N2CCOCC2)nn1 | inconclusive: 18.5 µM [inhibitor, single point] | – |
| O=S1(=O)CCOC[C@H](CC2CCCCC2)N1Cc1cccc(F)c1 | inconclusive: 5.86 µM [inhibitor, partial curve, poor fit] | – |
| COCCn1c(-c2ccc(Br)cc2)nc2oc3cc(OC)ccc3c(=O)c2c1=O | inconclusive: 9.28 µM [inhibitor, partial curve, poor fit] | – |
